From PubChem BioAssay AID1117319 (Southern Research Institute, 2015)
About 1,500 (0.58%) of roughly 260,000 compounds were called active. This list was built around the results that the source calls inconclusive (neither active nor inactive); the mix of calls is not that of the screen.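 Rule for the calls: active = inhibition above a set limit at one or more doses, reproduced on every date tested; inconclusive = results disagree between test dates, or hit never tested in dose response; inactive = the rest.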

The chains behind the UniProt entries cited, without tags or fusion partners. Where a name states a change or a piece, a line headed by the entry shows the natural chain unless it says otherwise.
UniProt P69720: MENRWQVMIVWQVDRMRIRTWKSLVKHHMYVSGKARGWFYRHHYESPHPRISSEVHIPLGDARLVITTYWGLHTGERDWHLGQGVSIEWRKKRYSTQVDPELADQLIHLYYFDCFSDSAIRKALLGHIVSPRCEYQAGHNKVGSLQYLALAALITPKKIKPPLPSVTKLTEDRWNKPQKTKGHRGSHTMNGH
UniProt P69721: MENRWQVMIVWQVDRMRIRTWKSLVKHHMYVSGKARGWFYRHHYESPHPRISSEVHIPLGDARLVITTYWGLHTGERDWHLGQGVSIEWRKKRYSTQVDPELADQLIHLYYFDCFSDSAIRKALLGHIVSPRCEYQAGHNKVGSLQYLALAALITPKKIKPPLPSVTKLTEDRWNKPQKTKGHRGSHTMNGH
UniProt P69722: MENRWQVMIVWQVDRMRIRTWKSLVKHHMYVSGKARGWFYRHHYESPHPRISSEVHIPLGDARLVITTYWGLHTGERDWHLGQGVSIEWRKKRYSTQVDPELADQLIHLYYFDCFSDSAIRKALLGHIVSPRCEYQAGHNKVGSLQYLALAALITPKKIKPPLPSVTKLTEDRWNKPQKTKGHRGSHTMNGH
UniProt P69723: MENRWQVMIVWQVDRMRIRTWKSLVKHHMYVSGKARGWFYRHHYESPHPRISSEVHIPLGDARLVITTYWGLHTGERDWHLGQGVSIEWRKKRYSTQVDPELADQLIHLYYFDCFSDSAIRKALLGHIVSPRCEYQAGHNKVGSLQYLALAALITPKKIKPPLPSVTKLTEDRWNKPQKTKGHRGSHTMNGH
UniProt Q9HC16: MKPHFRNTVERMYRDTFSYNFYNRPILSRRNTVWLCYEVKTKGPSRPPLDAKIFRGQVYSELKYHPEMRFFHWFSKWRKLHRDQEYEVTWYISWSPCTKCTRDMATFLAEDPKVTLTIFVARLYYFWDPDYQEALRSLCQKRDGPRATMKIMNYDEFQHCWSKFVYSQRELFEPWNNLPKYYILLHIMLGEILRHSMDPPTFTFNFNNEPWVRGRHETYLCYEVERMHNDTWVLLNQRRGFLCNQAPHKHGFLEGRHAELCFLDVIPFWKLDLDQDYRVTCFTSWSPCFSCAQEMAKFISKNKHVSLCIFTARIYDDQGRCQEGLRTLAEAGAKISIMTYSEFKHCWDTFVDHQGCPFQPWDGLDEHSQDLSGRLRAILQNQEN

Each compound was assayed against Virion infectivity factor (Human immunodeficiency virus type 1 group M subtype B (isolate BH10)) + Virion infectivity factor (Human immunodeficiency virus type 1 group M subtype B (isolate BRU/LAI)) + Virion infectivity factor (Human immunodeficiency virus type 1 group M subtype B (isolate PCV12)) + Virion infectivity factor (Human immunodeficiency virus type 1 group M subtype B (isolate HXB2)) + DNA dC->dU-editing enzyme APOBEC-3G (Homo sapiens) (UniProt P69720+P69721+P69722+P69723+Q9HC16) (assay: inhibitors of Vif binding to APOBEC3G peptide, primary screen, biochemical, TR-FRET, GST-Vif 1-94, biotin-A3G peptide, dose response retest (AID 1117319;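 note: Vif residues 1-94 fused to GST binding biotinylated APOBEC3G peptide 110-148; 0% = full assay without inhibitor and 100% = GST in place of GST-Vif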)). Conditions: active compounds read high.
For `Cn1nnc2sc3c(c2c1=O)CCCC3`, the inhibition was inconclusive: 34.6%.
With `Cc1ccc(-n2ncc3c(N4CCC(C(N)=O)CC4)ncnc32)c(C)c1` the inhibition was inconclusive: 57%.
For `CCOc1cccc2sc(NC(=O)c3ccc(Br)s3)nc12`, the inhibition was inactive: -37.3%.
With `CCN(CC(=O)Nc1ccc(NC(C)=O)cc1)C(=O)/C=C/c1c(C)nn(-c2ccc(F)cc2)c1Cl` the inhibition was inactive: 0.81%.
For `O=C1CC(N2CCN(c3ccc(O)cc3)CC2)C(=O)N1Cc1cccs1` (stereo not drawn), the inhibition was inconclusive: 40.6%.
`CN1CCc2nc(SCC(=O)Nc3ccc(Cl)cc3)c(C#N)cc2C1` was tested, and the inhibition was inconclusive: 56.6%.
In the case of `COc1ccc(CC(=O)N(C)C2CCCCC2)cc1S(=O)(=O)N1CCOCC1`, the inhibition is reported as inactive: 1.22%.
In the case of `CC(C)(C)c1nnc(N/N=C/c2ccc(Br)cc2)n(N)c1=O`, the inhibition is reported as inconclusive: 53.5%.
For `COC(=O)c1ccc(CSc2nc3ccccc3c(=O)n2CC(C)C)o1`, the inhibition was inconclusive: 35.5%.
`CC1=C(C(=O)OCc2ccccc2)C(c2ccccc2Br)NC(=O)N1` (stereo not drawn) was tested, and the inhibition was inactive: -2.14%.
`O=C(Cn1nc(C(F)(F)F)c2c1CCC2)NCc1ccc(F)cc1` was tested, and the inhibition was inconclusive: 53.6%.
`CCc1ccc(C(=O)CSC2=C(C#N)C(c3ccco3)C(C(C)=O)=C(C)N2)cc1` (stereo not drawn) was tested, and the inhibition was inconclusive: 57.3%.
With `COc1cc(C2=NOC(C(=O)NCc3cccs3)C2)cc(OC)c1OC` (stereo not drawn) the inhibition was inconclusive: 59.4%.
`O=C(O)CC(O)C(=O)O` (stereo not drawn) was tested, and the inhibition was inconclusive: 34.2%.
In the case of `O=C1Nc2ccccc2C(O)(C(=O)NCc2ccco2)N1c1ccc(Cl)c(Cl)c1` (stereo not drawn), the inhibition is reported as inconclusive: 33.2%.
With `CCOC(=O)Cc1cc(=O)n(-c2nc3ccccc3s2)[nH]1` the inhibition was inconclusive: 34.2%.
With `O=C(N/N=C/c1c[nH]c2ccccc12)c1cc(-c2ccccc2)n[nH]1` the inhibition was inconclusive: 48.1%.
With `CNCCCC1c2ccccc2C=Cc2ccccc21` the inhibition was inconclusive: 40.7%.
`Cn1cccc1/C=N/NC(=O)c1ccco1` was tested, and the inhibition was inconclusive: 54.1%.
For `CCc1ccc2[nH]c3nc(C)cc(C)c3c(=O)c2c1`, the inhibition was inconclusive: 39.7%.
`Cn1cccc1/C=C1\CC(C(C)(C)C)C/C(=C\c2cccn2C)C1=O` (stereo not drawn) was tested, and the inhibition was inactive: 1.11%.
In the case of `COc1ccc(C(C)=O)cc1COC(=O)c1c(C)noc1C`, the inhibition is reported as inconclusive: 38.5%.
For `Cc1nn(Cc2ccc(C(=O)NC(C)(C)C)o2)c(C)c1Br`, the inhibition was inconclusive: 48.8%.
`COc1cc(C2Sc3ccccc3NC3=C2C(=O)OC3)cc(OC)c1OC` (stereo not drawn) was tested, and the inhibition was inconclusive: 40.8%.
`COc1ccc(-n2c(=O)cc(N3CCN(c4ccccc4OC)CC3)[nH]c2=O)cc1` was tested, and the inhibition was inconclusive: 43.8%.
With `Cc1ccc(-n2c(C)cc(/C=C3\SC(=O)NC3=O)c2C)cc1` the inhibition was inactive: -6.8%.
With `Cc1ccc(S(=O)(=O)Nc2cccc(C(=O)N3CCCC3)c2)cc1F` the inhibition was inactive: 3.33%.
For `Cc1cc(C)c(S(=O)(=O)Nc2cc(SCC(=O)O)c(O)c3ccccc23)cc1C`, the inhibition was inactive: 29.4%.
For `CC(=O)N1CN(C2CCCC2)Cc2c1sc1c2CCCC1`, the inhibition was inconclusive: 50.1%.
With `C/C=C(\C)C(=O)Nc1cccc(C2=NOC3(C2)C[C@H](C(N)=O)N(C(=O)C(c2ccccc2)c2ccccc2)C3)c1` (stereo partly drawn) the inhibition was inactive: 17.8%.
For `O=C(O)c1ccc(CSc2ncn[nH]2)cc1`, the inhibition was inconclusive: 50%.
For `N#C/C(=C\c1ccc(-c2cccc([N+](=O)[O-])c2)o1)c1nnc(N2CCOCC2)n1-c1ccccc1`, the inhibition was inconclusive: 49.7%.
With `COc1cccc(/C=C2\SC(=S)N(CC(=O)N(C)C3CCS(=O)(=O)C3)C2=O)c1` (stereo not drawn) the inhibition was inactive: 3.59%.
With `O=C(Nc1ccc(S(=O)(=O)N2CCCCCC2)cc1)c1ccco1` the inhibition was inconclusive: 5.37%.
For `CCCCOCCCn1c(-c2ccco2)nc2nc3ccccc3nc21`, the inhibition was inconclusive: 46%.
`C=CCOC(=O)CCC(=O)Nc1cccc2ccccc12` was tested, and the inhibition was inconclusive: 37.1%.
With `N#Cc1ccc(C(=O)Nc2nc(SCc3ccc(Cl)cc3)n[nH]2)cc1` the inhibition was inconclusive: 46.5%.
`Cc1ccc(SCCCCN2C(=O)NC(C)(C)C2=O)cc1` was tested, and the inhibition was inactive: -3.51%.
In the case of `O=C(NCc1ccccc1)NC1(C(=O)N2CCN(c3ccccc3)CC2)CCCCC1`, the inhibition is reported as inconclusive: 18.6%.
For `CCCC(c1nnnn1C(C)(C)C)N1CCN(Cc2ccccc2OC)CC1` (stereo not drawn), the inhibition was inconclusive: 57.2%.
In the case of `Nc1c(C(=O)Nn2cnnc2)cc([N+](=O)[O-])cc1[N+](=O)[O-]`, the inhibition is reported as inconclusive: 46.1%.
In the case of `CCOc1ccccc1N1CCN(Cc2cn[nH]c2-c2ccc(F)cc2)CC1`, the inhibition is reported as inconclusive: 33.6%.
With `Cc1nnc(-c2ccccc2)c(=O)n1/N=C/c1c(O)ccc2ccccc12` the inhibition was inconclusive: 40.1%.
With `Cc1noc(C)c1S(=O)(=O)N(CC(=O)NCc1ccc2c(c1)OCO2)c1ccc(C(C)C)cc1` the inhibition was inconclusive: 17.6%.
`COc1ccccc1/C=c1\sc2nc(-c3ccco3)nn2c1=O` was tested, and the inhibition was inactive: 31.4%.
With `COc1cccc(NC(=O)Nc2ccc(Br)cn2)c1` the inhibition was inconclusive: 57.1%.
For `CSc1nc(C)cc(OCC(=O)n2nc(C)cc2C)n1`, the inhibition was inactive: 1.86%.
With `COC(=O)c1nc(NC(=O)C(C)C)n[nH]1` the inhibition was inconclusive: 49%.
In the case of `CCOC(=O)c1cc2c(=O)n3ccccc3nc2n(Cc2ccco2)c1=NC(=O)c1cccnc1`, the inhibition is reported as inconclusive: 53.1%.
For `O=C(CCC1CCCN(C(=O)c2cncs2)C1)NCc1ccc(F)c(F)c1` (stereo not drawn), the inhibition was inconclusive: 60%.
In the case of `CC(=O)N1CCN(c2ccc(NC(=O)c3ccc(Br)o3)cc2Cl)CC1`, the inhibition is reported as inconclusive: 51.6%.
For `Fc1ccc2nc(Nc3nc4c(F)cc(F)cc4s3)sc2c1`, the inhibition was inconclusive: 63%.
For `C/C(=N\NC(=O)CC#N)c1cc2ccc(O)cc2oc1=O`, the inhibition was inconclusive: 34.8%.
For `Cn1c(-c2ccccc2)cc(=O)c2ccccc21`, the inhibition was inconclusive: 43.8%.
For `c1ccc(-c2nn3c(C4CCCCC4)nnc3s2)nc1`, the inhibition was inconclusive: 33%.
With `COC(=O)C1=C(Nc2ccccc2NC(=O)CCCC(=O)O)CSC1` the inhibition was inconclusive: 54%.
For `COc1cc(C(=O)Oc2cccc(C=O)c2)cc(OC)c1OC`, the inhibition was inactive: 8.54%.
For `COc1cccc(Nc2nnc(SCC(=O)N3CC(C)OC(C)C3)s2)c1` (stereo not drawn), the inhibition was inconclusive: 33.1%.
